Screen size: about 350,000 compounds; about 1,200 (0.34%) were called active. Inconclusive results, whose numbers are uncertain, are shown with a selection of clear calls. The call rests on the fitted dose curve; in most records, active means well fitted inhibition curve with a large enough effect; inconclusive means small, poorly fitted or top-dose-only effect; inactive means no such curve, though single readings can be large or run the other way. A potency beside an inconclusive call is a rough fit, not a confirmed value.
molecular target: DNA repair nuclease/redox regulator APEX1 (Homo sapiens) (UniProt P27695); test: qHTS Assay for Inhibitors of the Human Apurinic/apyrimidinic Endonuclease 1 (APE1); details: recombinant APE1, TAMRA/BHQ-2 abasic DNA cleavage fluorescence; activity change, negative = inhibition: at 65.8 µM (top of the series); further: nearly all actives have a fitted effect of over 55% in size;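 on activity change, negative = inhibition: plate controls were vehicle for no effect and reference inhibitor for full effect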
How it was run: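 Activity was derived from the fluorescence gain between first and third kinetic reads (60 s intervals, ex 525/em 598 nm) after 50 nM THF-abasic TAMRA/BHQ-2 duplex was added to 0.75 nM APE1 preincubated 15 min with compound.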
Potency means the concentration at half of the fitted maximal effect.

Amino acid sequences for entries named in this document (tags omitted).
UniProt P27695, whole entry, looked up: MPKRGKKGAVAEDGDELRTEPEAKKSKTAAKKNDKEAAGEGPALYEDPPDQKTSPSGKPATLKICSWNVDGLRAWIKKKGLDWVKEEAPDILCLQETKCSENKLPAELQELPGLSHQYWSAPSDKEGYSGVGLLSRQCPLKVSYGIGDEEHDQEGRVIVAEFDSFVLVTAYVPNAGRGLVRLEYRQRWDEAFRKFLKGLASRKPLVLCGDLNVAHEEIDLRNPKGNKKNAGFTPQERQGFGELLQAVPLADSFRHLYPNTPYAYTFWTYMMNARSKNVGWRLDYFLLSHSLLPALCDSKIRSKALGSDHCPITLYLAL

SMILES	Potency	activity change, negative = inhibition
O=C(C[n+]1cc(Br)cc(Br)c1)c1cccc([N+](=O)[O-])c1	inconclusive: 39.8 µM [inhibitor, single point]	
COc1cscc1C(=O)O	inconclusive: 7.94 µM [inhibitor, single point]	
C/C(=N\NC(=O)CN1CCN(Cc2ccccc2)CC1)c1cccs1	inconclusive: 0.224 µM [inhibitor, full curve, poor fit]	
COc1ccc(/C=N/NC(=O)c2ccccc2OC)cc1COc1ccccc1[N+](=O)[O-]	inactive	
COc1ccc(CN2CCC(C(=O)Nc3ccc(Oc4ccccc4)nc3)CC2)cc1F	inactive	
O=C(Nc1ccc(Br)cn1)c1coc(=O)c(Br)c1	inconclusive: 39.8 µM [inhibitor, single point]	
O=C(CSc1nc(-c2ccccc2)nc2c1Cc1ccccc1O2)Nc1ccccc1	inconclusive: 17.8 µM [inhibitor, partial curve, poor fit]	
CC1=CSC2=NC(=O)/C(=C\c3cccn3-c3ccccc3)C(=N)N12	inactive	
CNC(=S)N/N=C1\C(=O)c2cccc3cccc1c23	inactive	
CC(=O)c1nnn(-c2ccc([N+](=O)[O-])cc2)c1C	inconclusive: 3.55 µM [inhibitor, single point]	
Cc1ccc(C(=O)OCC(=O)c2c(N)n(C)c(=O)n(C)c2=O)cc1S(=O)(=O)N1CCCCC1	inconclusive: 22.4 µM [inhibitor, single point]	
O=C1OC[C@@H]2CCCN2C(=O)[C@@H](CC(=O)N(CCO)Cc2ccccc2)C/C=C\CC[C@H]1Cc1ccc(F)cc1	inconclusive: 16.8 µM [inhibitor, partial curve]	
COC(=O)c1ccc(NC(=O)c2ccc(NC(=O)c3ccco3)cc2)cc1	inactive	
CCOc1ccccc1Nc1nc2ccccc2n2cnnc12	inconclusive: 3.55 µM [inhibitor, single point]	
CC(C)CCCC(C)CCCC(C)CCCC(C)C(=O)O (stereo unspecified)	inactive	
CSc1nc2nc(-c3ccccc3)cc(=O)n2[nH]1	inconclusive: 44.7 µM [inhibitor, single point]	
C[C@H]1Cc2c(-c3ccccc3)nc3c(c2CO1)CN(C(=O)C1CCCCC1)CC3		inactive: -1.6% [at 12.4 µM]
CSc1ncccc1C(=O)OCC(=O)N(C)C	inconclusive: 44.7 µM [inhibitor, single point]	
COc1cc(/C=N/N2C(=O)CSC2=S)ccc1O	inactive	
Cc1cc(OCc2ccc(C(=O)n3cccn3)o2)ccc1Cl	inconclusive: 2.82 µM [inhibitor, partial curve]	
Cc1ccc(-n2nnnc2-c2cccnc2)cc1	inconclusive: 3.55 µM [inhibitor, full curve]	
CCOC(=O)C1CCN(C(=O)Nc2ccc3nc(-c4ccco4)c(-c4ccco4)nc3c2)CC1	active: 7.94 µM	
C=CCNC(=O)N1c2ccccc2Sc2ccccc21	inactive	
CCCCNC(=O)CCC(=O)NNc1nc2ccccc2c2nc(-c3ccccc3)nn12	inactive	

SMILES	Potency	activity change, negative = inhibition
O=C(c1ccco1)N1C(=O)c2cccc3cccc1c23	inconclusive: 1.12 µM [inhibitor, full curve, poor fit]	
CCOc1ccccc1NC(=O)COC(=O)Cc1ccc(-c2ccccc2)cc1	inactive	
COc1ccc(OC)c(-c2cc(C(=O)Nc3c(C)nn(Cc4ccccc4)c3C)no2)c1	inconclusive: 1.78 µM [inhibitor, full curve, poor fit]	
Cc1c(C(=O)NC(c2ccccn2)C(F)(F)F)oc2c(F)cccc12 (stereo unspecified)	inactive	
COc1cccc(NC(=O)Nc2cc(C)on2)c1	inconclusive: 37.7 µM [inhibitor, single point]	
COC(=O)C/C=C/[C@@H](C)[C@@H](/C=N/O[C@H](C)c1cn([C@@H]2COC[C@H]2O)nn1)NS(=O)(=O)c1ccc(C)cc1	inconclusive: 35.5 µM [inhibitor, single point]	
O=C(NCCO)c1cc([N+](=O)[O-])cc2c1C=Cc1ccccc1O2	inactive	
CC1=C(C)CC(C(=O)Nc2cccc(Cl)c2)C(C(=O)O)C1 (stereo unspecified)	inconclusive: 12.6 µM [inhibitor, partial curve, poor fit]	
Cc1ccc(-c2nc(SCC(=O)N(C)c3c(N)n(Cc4ccccc4)c(=O)[nH]c3=O)n[nH]2)cc1	inactive	
CCCCCCCC/C=C\CCCCCCCC(=O)NCCO	inconclusive: 39.8 µM [inhibitor, partial curve]	
CCCOc1ccc(C(=O)CCN2CCN(C(=O)OCC)CC2)cc1	inactive	
O=C(O)CC(C(=O)O)N1C(=O)/C(=C/C=C/c2ccco2)SC1=S (stereo unspecified)	active: 1 µM	
Clc1cccc(N/N=C/c2ccc(N3CCOCC3)s2)c1	inactive	
CC1CCCCC1NC(=O)CCc1nc2sc3c(c2c(=O)[nH]1)CCCC3 (stereo unspecified)	inactive	
COc1cc2c3nnc(-c4ccc(F)cc4)c-3cn(Cc3ccccc3F)c2cc1OC	inactive	
O=C(O)CSCc1ccc(C(=O)O)o1	inconclusive: 31.6 µM [inhibitor, single point]	
O=C(NC1CC1)c1c[nH]c2ccc(S(=O)(=O)Nc3cccc(C(F)(F)F)c3)cc2c1=O	inconclusive: 39.8 µM [inhibitor, single point]	
O=C(O)CCNc1ccc(NCCC(=O)O)c2c1C(=O)c1ccccc1C2=O	active: 6.7 µM	
CCOC(=O)Nc1ccc2c(COC(=O)CNS(=O)(=O)c3ccc(NC(C)=O)cc3)cc(=O)oc2c1	inconclusive: 44.7 µM [inhibitor, single point]	
O=C(N/N=C1/C[C@@H](O)[C@@H](O)[C@@H]2[C@@H]3C(=O)N(Cc4ccc5c(c4)OCO5)C(=O)[C@H]3CC[C@@H]12)OCc1ccccc1	inconclusive: 3.55 µM [inhibitor, partial curve]	
Cn1c2cc([N+](=O)[O-])sc2c2cnn(Cc3ccccc3F)c(=O)c21	inconclusive: 23.8 µM [inhibitor, single point]	
NC(=O)N/N=C/c1coc2ccc(O)cc2c1=O	inconclusive: 31.6 µM [inhibitor, partial curve]	
CCOC(=O)[C@H]1[C@H]2COc3ccc(Cl)cc3[C@@H]2N2C(=O)CN(C)C(=O)[C@@]12C	inconclusive: 21.2 µM [inhibitor, single point]	
O=C(O)CCCNc1cc(N2CCC3(CC2)OCCO3)c2noc3c2c1C(=O)c1ccccc1-3	inconclusive: 8.91 µM [inhibitor, partial curve]	

Some of the entries so far, bar-delimited.
SMILES | Potency | activity change, negative = inhibition
CCOc1ccccc1NC(=O)COC(=O)Cc1ccc(-c2ccccc2)cc1 | inactive | 
CC1=C(C)CC(C(=O)Nc2cccc(Cl)c2)C(C(=O)O)C1 (stereo unspecified) | inconclusive: 12.6 µM [inhibitor, partial curve, poor fit] | 
Cn1c2cc([N+](=O)[O-])sc2c2cnn(Cc3ccccc3F)c(=O)c21 | inconclusive: 23.8 µM [inhibitor, single point] | 

Following part:

SMILES	Potency	activity change, negative = inhibition
Cc1nc(-c2ccc(O)c(O)c2)cs1	active: 3.16 µM	
CCN(CC)c1ccc(NC(=O)CCCOc2cccc(C)c2)cc1	inactive	
COc1ccc(C(=O)O)c(O)c1OC	inactive	
S=C(N/N=C/c1ccccc1Cl)Nc1ccccc1	inconclusive: 3.55 µM [inhibitor, single point]	
CC(N)(C(=O)O)c1ccc(S(=O)(=O)O)cc1 (stereo unspecified)	inconclusive: 39.8 µM [inhibitor, single point]	
COC(=O)c1ccccc1OCCN1CCCCCC1	inconclusive: 0.0794 µM [inhibitor, partial curve, poor fit]	
O=C(c1ccco1)N1CCN(Cc2nc(-c3cccs3)no2)CC1	inactive	
Cc1cc(C)c(S(=O)(=O)c2ccccc2Cl)c(Cl)n1	inactive	
Cc1ccn(-c2cc(O)c(-n3ccc(C)n3)cc2O)n1	inactive	
COc1cccc(/C=C/C(=O)OCC(=O)NCC2CCCO2)c1OC (stereo unspecified)	inconclusive: 44.7 µM [inhibitor, single point]	
c1ccc(-c2ccccc2OCCCN2CCCCCC2)cc1	inactive	
Cc1ccc(C)c(-n2nnnc2Sc2nc([N+](=O)[O-])nn2C)c1	inconclusive: 10 µM [inhibitor, single point]	
Oc1ccc(Oc2ncc(Cl)cc2Cl)cc1	inconclusive: 44.7 µM [inhibitor, single point]	
COCCN(C(=O)CSc1nnc(-c2cccc(C)c2)n1C)c1c(N)n(Cc2ccccc2)c(=O)[nH]c1=O	inconclusive: 35.5 µM [inhibitor, partial curve]	
CCC(Sc1nc(-c2ccccc2)c(C#N)c(=O)[nH]1)C(=O)Nc1nnc(C)s1 (stereo unspecified)	inactive	
Cc1cccc(-n2c(O)c(C=Nc3ccccc3O)c3ccccc3c2=O)n1	inconclusive: 31.6 µM [inhibitor, single point]	
COC(=O)c1ccc(S(=O)(=O)NC(C)(C)C)n1C	inconclusive: 5.01 µM [inhibitor, single point]	
O=C(Nc1cccc(S(=O)(=O)NC2=NCCCCC2)c1)C1COc2ccccc2O1 (stereo unspecified)	inconclusive: 25.1 µM [inhibitor, single point]	
O=C(Nc1ccc(NC(=O)c2ccco2)c(Cl)c1)c1ccc2c(c1)OCCO2	inconclusive: 2.51 µM [inhibitor, partial curve, poor fit]	
Cc1ccccc1NC(=S)N1CCCC1	inconclusive: 20 µM [inhibitor, single point]	
COC(=O)[C@@]1(Cc2ccccc2)[C@H]2c3cc(C(=O)N(C)C)n(Cc4cc(F)c(F)c(F)c4)c3C[C@H]2CN1C(=O)c1ccccc1	inconclusive: 35.5 µM [inhibitor, single point]	
COc1ccc2[nH]cc(CCNc3ccnc(-c4ccc(C(=O)N(C)C)cc4)n3)c2c1	inconclusive: 44.7 µM [inhibitor, single point]	
CC(=O)OCC1=C(C(=O)O)N2C(=O)C(NC(=O)c3ccc(COc4c(C)cccc4Cl)o3)C2SC1 (stereo unspecified)	inconclusive: 35.5 µM [inhibitor, single point]	

Copied from the list.
`COCCN(C(=O)CSc1nnc(-c2cccc(C)c2)n1C)c1c(N)n(Cc2ccccc2)c(=O)[nH]c1=O` | Potency: inconclusive: 35.5 µM [inhibitor, partial curve]
`COc1cccc(/C=C/C(=O)OCC(=O)NCC2CCCO2)c1OC` (stereo unspecified) | Potency: inconclusive: 44.7 µM [inhibitor, single point]

Reference: PubChem BioAssay AID2517 (National Center for Advancing Translational Sciences (NCATS), 2010)
